Source: PubChem BioAssay AID1259405 (NCATS, 2018)
The whole screen tested about 50,000 reagents; below is an unselected part. About 4,000 of them (8%) count as active. 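Mouse siRNA library applied to hamster cells; one well for each siRNA.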 No sequences are given here.

- Purpose: 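Mouse-designed siRNAs used to find CHO productivity engineering targets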 (primary screen)
- Cell system: Chinese hamster CHO-K1 ovary cells with stable secreted eGFP expression
- Reagents: single siRNA against mouse genes, 0.8 pmol siRNA per well (2 µl of 400 nM stock)
- Timing: 3 days
- Read-out: 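Per-well intracellular GFP measured by laser scanning cytometry, plus viability from ATP luminescence, each relative to plate median of non-targeting control wells, in %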
- Scale: GFP, % of control: higher = more GFP per well, higher productivity; viability (ATP), % of control: higher = more viable cells (more ATP)
- Hit rule: 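a knock-down is called active if GFP reaches 120% or more of non-targeting control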

target	PubChem SID	GFP, % of control	viability (ATP), % of control	outcome
Lrrc42	SID363542794	87.4	65.9	inactive
Lrrc42	SID363546311	83.9	86.2	inactive
Lrrc42	SID363548067	78.2	84.1	inactive
Ccdc137	SID363543830	56.9	45.4	inactive
Ccdc137	SID363551566	116	105	inactive
Ccdc137	SID363559171	90.6	62.9	inactive
Dhx33	SID363569855	89.9	66.2	inactive
Dhx33	SID363576895	85.6	92.8	inactive
Dhx33	SID363578303	125	112	active
Serpinf1	SID363573141	97.6	116	inactive
Serpinf1	SID363577717	62.7	51.1	inactive
Serpinf1	SID363581237	64.8	57.9	inactive
Hk1	SID363570784	54.1	40.4	inactive
Cela3b	SID363574375	28.3	32.4	inactive
Cela3b	SID363575431	72.5	74.1	inactive
Cela3b	SID363580007	36.1	43.6	inactive
Kif23	SID363540922	46.5	43.2	inactive
Kif23	SID363555549	72.3	80.1	inactive
Kif23	SID363565838	34	69.2	inactive
Prkx	SID363571032	48.6	59.6	inactive
Mxra8	SID363540837	108	114	inactive
Mxra8	SID363543288	62.7	104	inactive
Mxra8	SID363552781	56.5	58.8	inactive
Scap	SID363555023	127	110	active
Scap	SID363568470	28.9	48.8	inactive
Scap	SID363586529	53.2	66.7	inactive
Slamf6	SID363582535	88.6	142	inactive
Slamf6	SID363584295	72.6	79.7	inactive
Dgat1	SID363570549	66	86.5	inactive
Dgat1	SID363579349	110	140	inactive
Dgat1	SID363583221	76.9	105	inactive
Abcf2	SID363574650	70.3	78.1	inactive
Abcf2	SID363575706	14.4	15.3	inactive
Abcf2	SID363580282	59.5	73	inactive

Single entries from the entries so far.
Under “viability (ATP), % of control”, Mxra8 [SID363543288] reads 104
Scap [SID363555023], outcome → active
Under “outcome”, Slamf6 [SID363582535] has inactive
